No constants are given. Whether binding was seen depends on the method and setting. Some entries that bind do so weakly or less than the wild type.
Target: nAChR in rat neonatal skeletal muscle cell membranes (rat (endogenous in primary skeletal muscle cells of neonatal rats)) (UniProt P25108)
Test: radioligand binding; […]; 20 mM Tris-HCl pH 7.4, 10 mM EDTA, 150 mM NaCl, 0.2 mg/mL BSA; […]; only the binder purified

Sequences of proteins named here, by UniProt entry; tags and fusion partners are left off. A change or cut given only in a name is not applied to a line headed by its entry. Residues count along the entry.
UniProt P25108: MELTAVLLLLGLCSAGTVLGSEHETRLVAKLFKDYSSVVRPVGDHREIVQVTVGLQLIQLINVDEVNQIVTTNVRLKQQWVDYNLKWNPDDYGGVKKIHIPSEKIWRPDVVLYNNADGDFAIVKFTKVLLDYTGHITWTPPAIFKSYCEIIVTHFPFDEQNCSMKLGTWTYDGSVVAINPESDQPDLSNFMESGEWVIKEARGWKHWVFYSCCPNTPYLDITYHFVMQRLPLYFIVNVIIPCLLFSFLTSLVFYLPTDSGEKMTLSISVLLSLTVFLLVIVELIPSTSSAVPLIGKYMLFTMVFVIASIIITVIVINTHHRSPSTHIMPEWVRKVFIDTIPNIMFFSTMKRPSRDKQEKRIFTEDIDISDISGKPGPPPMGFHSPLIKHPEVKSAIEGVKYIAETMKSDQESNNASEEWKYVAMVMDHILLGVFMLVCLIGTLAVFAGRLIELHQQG
UniProt P60615, residues 22-95: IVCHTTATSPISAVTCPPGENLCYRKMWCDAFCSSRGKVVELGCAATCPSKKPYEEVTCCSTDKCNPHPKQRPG

## α-Bungarotoxin (from UniProt P60615 22-95)
  binding: binds

From paper PMC11054780
